tested on: normal human fibroblasts; experiment: Intracellular penetration of fluorescent tracers, free or in liposomes (spectrofluorimetry); assay type: cell-based; settings: selection as tracer
Excerpt: The selection of the tracer necessitated the preparation and the purification of liposomes, according to the protocol described in Example 1, these liposomes containing varying concentrations of the various hydrosoluble or liposoluble tracers (Table 1, Annex 1). The controls—a free fluorescent tracer—are made by dissolution at the same concentration of fluorescent tracer in the dilution buffer, so as to quantify its cytotoxicty and its spontaneous penetration in the fibroblasts.
Practically, after extraction from a biopsy originating from abdominal plastic surgery, the fibroblasts are amplified in DF medium, i.e.: DMEM (Dulbecco's Modified Eagle's Medium)/Ham F12 glutamax 50/50 volume/volume, supplemented with 10% of calf serum, with penicillin at a final concentration of 100 UI/millilitre, with gentamicin at a final concentration of 1 microgram/millilitre, with amphotericin B at a final concentration of 1 microgram/millilitre.
Firstly, after centrifugation, the purified liposomes are taken up into DF culture medium, homogenised in a vortex, and are deposited at the rate of 1 ml per well on the fibroblasts cultivated in 24-well plates (Costar MW24). The controls are made under the same conditions. A non-treated control is also made.
The fibroblasts are incubated for 24 hours at 37° C. in the presence of the liposomes, and are then rinsed 3 times in pH 7.4 phosphate buffer. First of all, the fluorescence is evaluated dry by spectrofluorimetry with a Cytofluor 4000® (Millipore). Secondly, the intracellular fluorescence is observed for the molecules of interest on an Olympus® reverse microscope (IX70) by using the corresponding excitation filter (objective ×10, ×40 and ×100). Finally, the cytotoxicity of the fluorescent tracers is evaluated in a 96-well plate by incubation for 24 hours as described in Example 1.
The intracellular penetration of liposomes which contain 5% of soya lecithin, 0.01% of PFB-F or TRITC in the presence or not of 0.5% 25 kDa polyethylenimine (PEI), which are prepared according to the protocol described in Example 1, is analysed after incubation for 24 hours on human fibroblasts cultivated in a 24-well plate, as described in Example 2.

Compound	Retained
Cc1ccc(N(CC(=O)[O-])CC(=O)[O-])c(OCCOc2cc3cc(-c4ncc(C(=O)[O-])o4)oc3cc2N(CC(=O)[O-])CC(=O)[O-])c1.[K+].[K+].[K+].[K+].[K+] [#F-1200 Fura-2. pentapotassium salt, Fura-2. pentapotassium salt]	Yes
O=S(=O)([O-])c1cc(O)c2ccc3c(S(=O)(=O)[O-])cc(S(=O)(=O)[O-])c4ccc1c2c34.[Na+].[Na+].[Na+] [hydroxypyrene trisulfonic acid, trisodium salt]	No
carboxy dichlorofluorescein [#C-369 carboxy dichlorofluorescein]	No
tetramethylrhodamine isothiocyanate [TRITC]	No Interferes
NNC(=O)COc1cc(S(=O)(=O)[O-])c2ccc3c(S(=O)(=O)[O-])cc(S(=O)(=O)[O-])c4ccc1c2c43.[Na+].[Na+].[Na+] [cascade blue hydrazine trisodium salt]	No
carboxyethyl carboxyffluorescein [#B-1151 carboxyethyl carboxyffluorescein]	No
O=C1OC2(c3ccc(O)cc3Oc3cc(O)ccc32)c2ccc(NC(=O)c3c(F)c(F)c(F)c(F)c3F)cc21 [PFB-F, 5-pentafluorobenzoylaminofluorescein]	Yes
Lysosensor yellow/blue DND 160 [#L7545L Lysosensor yellow/blue DND 160]	No
sulfo fluorescein diacetate [#S-1129 sulfo fluorescein diacetate]	No

Source: patent US9655822B2, “Hydrated lamellar phases or liposomes which contain a fatty monoamine or a cationic polymer which promotes intracellular penetration, and a cosmetic or pharmaceutical composition containing same, as well as a method of screening such a substance” (BASF Beauty Care Solutions France S.A.S., priority 2004, dated 2017)
